Reference: PubChem BioAssay AID1347076 (National Center for Advancing Translational Sciences (NCATS), 2019)
The campaign covered roughly 400,000 compounds. About 13,000 (3.2%) were called active. Inconclusive means that the source gave no clear call. Such entries were picked first, then a sample of the others. Calls come from the whole dose curve; as a rule, active = well fitted cell-killing curve with a large enough effect; inconclusive = small, poorly fitted or top-dose-only effect, or effect the other way; inactive = flat fitted curve, though single readings scatter. Potencies of inconclusive entries are doubtful fits and often do not repeat.

assay: qHTS assay for MDR1-selective chemotherapeutics: Primary screen using the drug-selected MDR subline cells KB-V1; settings: KB-V1 MDR cells viability, CellTiter-Glo, 72 h; activity change, negative = cytotoxicity: at 46.1 µM (top of the series); note: nearly all actives have a fitted effect of over 60% in size
Procedure, shortened: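 Readout: CellTiter-Glo luminescence, 10 min after addition. Cells: KB-V1 MDR subline, 72 h at 37 degrees C with compound. Analysis: corrected, normalized data fitted to concentration-effect curves.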
% is set by controls: 0 for no effect and ±100 for the full control effect; potency is the fitted concentration of half-maximal effect.

Q: For `COc1ccccc1NC1=Nc2cccc3cccc1c23`, which Potency is on record?
A: inconclusive: 32.6 µM [cytotoxic, single point]

Q: For `COc1ccc(NC(=O)COCc2cc(-c3ccc4c(c3)OCO4)on2)cc1`, which “activity change, negative = cytotoxicity” value is on record?
A: inactive: -6.89%

Q: For `O=C1CC(c2ccco2)Cc2nc(Nc3nc(-c4ccccc4)c4ccccc4n3)ncc21` (stereo unspecified), which Potency is on record?
A: inconclusive: 20.6 µM [cytotoxic, single point]

Q: Which Potency does the source give for `CCOC(=O)C1(CCOc2ccccc2)CCN(Cc2cccc3c2OCO3)CC1` here?
A: inconclusive: 10.3 µM [cytotoxic, partial curve]

Q: Which Potency does the source give for `Cc1ccc(NS(=O)(=O)c2cc([N+](=O)[O-])ccc2NNC(=S)Nc2cc(C)ccc2C)c(C)c1` here?
A: active: 2.91 µM

Q: Which Potency does the source give for `CC1CC(C)CN(CCCNC(=O)c2ccc3c(c2)NC(=O)CS3)C1` (stereo unspecified) here?
A: inconclusive: 29.1 µM [rising, single point]

Q: For `CCN1CCc2c(sc(N)c2C#N)C1`, which Potency is on record?
A: inconclusive: 14.6 µM [rising, partial curve, poor fit]

Q: Which Potency does the source give for `Cc1ccc(Cn2c(SCc3ccc(C(=O)NC4CCCCC4)cc3)nc3ccncc32)cc1` here?
A: inconclusive: 32.6 µM [cytotoxic, single point]

Q: For `O=C(NCCOCC(F)(F)C(F)F)c1cc(F)c(F)cc1Cl`, which Potency is on record?
A: inconclusive: 32.6 µM [cytotoxic, partial curve, poor fit]

Q: For `Cc1nnc2c(N3CCN(C(=O)c4ccco4)CC3)nc3ccccc3n12`, which Potency is on record?
A: inconclusive: 23.1 µM [cytotoxic, single point]

Q: Which Potency does the source give for `CC1(C)CC(=O)C2=C(C1)N(c1cccc(Cl)c1)C(=O)NC2(C(F)(F)F)C(F)(F)F` here?
A: inconclusive: 0.82 µM [cytotoxic, full curve, poor fit]

Q: With `C[C@H](CO)N1C[C@H](C)[C@@H](CN(C)Cc2ccc(-c3ccccc3)cc2)Oc2c(NC(=O)Cc3ccccc3)cccc2C1=O` as the molecule, how does the Potency read?
A: inconclusive: 20.6 µM [cytotoxic, single point]

Q: For `Cc1sc2nc(CSCC(=O)Nc3ccc(Cl)cc3F)[nH]c(=O)c2c1C`, which Potency is on record?
A: inconclusive: 8.2 µM [cytotoxic, partial curve]

Q: Which Potency does the source give for `COc1cc(C(=O)Nc2ccc(NC(=O)c3ccco3)nc2)cc(OC)c1OC` here?
A: inconclusive: 29.1 µM [cytotoxic, single point]

Q: With `C[C@@H]1CN([C@H](C)CO)C(=O)Cc2cc(NC(=O)CCC(F)(F)F)ccc2O[C@@H]1CN(C)C(=O)Nc1ccccc1` as the molecule, how does the Potency read?
A: inconclusive: 25.9 µM [rising, single point]

Q: For `COc1ccc(NC(=O)c2c(NCc3cccs3)sc3c2CCC(C)C3)c(OC)c1` (stereo unspecified), which Potency is on record?
A: inconclusive: 0.0411 µM [rising, full curve]

Q: For `CC(C)Oc1cccc(C(=O)C2CCCN(C(=O)c3cc(C(F)(F)F)[nH]n3)C2)c1` (stereo unspecified), which Potency is on record?
A: active: 20.6 µM

Q: For `Cc1ccccc1/C=C/c1nc2ccccc2c(=O)[nH]1`, which Potency is on record?
A: inconclusive: 10.3 µM [cytotoxic, partial curve, poor fit]

Q: For `O=C(COc1ccc2c(c1)OCO2)Nc1nccs1`, which Potency is on record?
A: inconclusive: 6.51 µM [cytotoxic, full curve]

Q: With `CCOc1cc(/C=C(/NC(C)=O)C(=O)O)cc(Cl)c1OCc1ccc(Br)cc1` as the molecule, how does the activity change, negative = cytotoxicity read?
A: inconclusive: 33%

Q: With `O=C(CSc1ccccc1C(=O)O)NCc1ccco1` as the molecule, how does the Potency read?
A: inconclusive: 29.1 µM [rising, single point]

Q: For `Cc1ccc2nc(/C(C#N)=C\c3ccc(OC(=O)c4cccs4)cc3)[nH]c2c1`, which Potency is on record?
A: inconclusive: 18.4 µM [cytotoxic, single point]

Q: Which Potency does the source give for `O=C(NCCc1ccccc1)c1cnn2c(C(F)F)cc(C3CC3)nc12` here?
A: inconclusive: 16.4 µM [cytotoxic, partial curve]

Q: Which Potency does the source give for `CCn1c(CNC(=O)COc2ccc(C(C)C)cc2)nnc1SCC(=O)NC1CCCCC1C` (stereo unspecified) here?
A: inconclusive: 9.2 µM [cytotoxic, partial curve]

Q: For `COc1ccc(Cc2nnc(SCC(=O)Nc3ccccc3C#N)o2)cc1`, which “activity change, negative = cytotoxicity” value is on record?
A: inactive: 4.21%

Q: For `O=C(O)C[C@H]1c2ccccc2S(=O)(=O)N1C1CCCCC1`, which Potency is on record?
A: inconclusive: 29.1 µM [rising, single point]

Q: With `CC(=O)N1CCc2cc(Br)cc(S(=O)(=O)CCC(=O)N3CCN(c4ccc(F)cc4)CC3)c21` as the molecule, how does the “activity change, negative = cytotoxicity” value read?
A: inactive: 6.79%

Q: With `O=C(N/N=C/c1ccc(Br)o1)c1cncc(Br)c1` as the molecule, how does the Potency read?
A: inconclusive: 8.2 µM [rising, partial curve]

Q: Which Potency does the source give for `CCn1cc(C(=O)NCC(C)C)c(=O)c2cc(F)c(N3CCN(C(=O)c4ccco4)CC3)cc21` here?
A: active: 16.4 µM

Q: Which “activity change, negative = cytotoxicity” value does the source give for `Cc1ccc(C(=O)C(OC(=O)CN2C(=O)c3ccccc3C2=O)c2ccccc2)cc1C` (stereo unspecified) here?
A: inactive: 18.6%

Q: For `Cc1ccc(N(CC(=O)NC2CCCCC2)C(=O)CCCC(=O)Nc2ccccn2)c(C)c1`, which Potency is on record?
A: inconclusive: 18.4 µM [cytotoxic, single point]

Q: Which Potency does the source give for `Cc1ccc(N=Cc2c(C)[nH]n(-c3nc4ccccc4[nH]3)c2=O)cc1` here?
A: active: 6.51 µM

Q: Which “activity change, negative = cytotoxicity” value does the source give for `CCC(C(=O)Nc1cccc(Cl)c1C)n1nc(C)c2sc3ccccc3c2c1=O` (stereo unspecified) here?
A: inactive: 4.06%

Q: With `COc1ccc(-c2noc(CN(C)S(=O)(=O)c3c(C)cc(C)cc3C)n2)cc1OC` as the molecule, how does the Potency read?
A: inconclusive: 20.6 µM [cytotoxic, partial curve]

Q: With `CC(Sc1nc(N)cc(=O)[nH]1)C(=O)Nc1sc2c(c1C#N)CCCC2` (stereo unspecified) as the molecule, how does the Potency read?
A: inconclusive: 23.1 µM [cytotoxic, single point]

Q: With `CCOC(=O)[C@]12CCCC=C1N(CCc1ccc(OC)c(OC)c1)C(=O)[C@H](CC(=O)NCc1ccccc1)C2` as the molecule, how does the Potency read?
A: inconclusive: 9.2 µM [cytotoxic, partial curve]

Q: Which Potency does the source give for `CCCCCC(=O)NNC(=S)NC(=O)c1ccccc1[N+](=O)[O-]` here?
A: inconclusive: 7.31 µM [cytotoxic, partial curve]

Q: With `Cc1nnc(NC(=O)CSc2cn(Cc3ccccc3)c3ccccc23)s1` as the molecule, how does the “activity change, negative = cytotoxicity” value read?
A: inactive: -8.84%

Q: With `CCc1nc2ccc(C)cc2c(C(=O)Oc2cccc3cccnc23)c1C` as the molecule, how does the “activity change, negative = cytotoxicity” value read?
A: inactive: -15.4%

Q: Which Potency does the source give for `COc1ccc(NC(=O)Nc2cc(NC(=O)Nc3ccc(OC)cc3)c(C)nc2C)cc1` here?
A: inconclusive: 25.9 µM [rising, single point]

Q: For `COC(=O)CCSc1cc(NCCCOC(C)=O)c([N+](=O)[O-])c2nonc12`, which “activity change, negative = cytotoxicity” value is on record?
A: inactive: 28.5%

Q: For `COc1cc(C=O)ccc1OCc1ccncc1`, which “activity change, negative = cytotoxicity” value is on record?
A: inactive: 7.93%

Q: With `O=C(COc1ccccc1C(=O)Nc1cccc(F)c1)Nc1ccc(Br)cc1` as the molecule, how does the “activity change, negative = cytotoxicity” value read?
A: inactive: 0%

Q: For `Cc1oc(-c2ccc(Cl)cc2)nc1CN1CCCC(C(=O)NCCc2ccc(Cl)cc2)C1` (stereo unspecified), which Potency is on record?
A: inconclusive: 7.31 µM [cytotoxic, partial curve, poor fit]

Q: For `CCN1C(=NCCCOC(C)C)N[C@@H](CCc2ccccc2)[C@H](C(=O)NCCCOC(C)C)[C@H]1C`, which “activity change, negative = cytotoxicity” value is on record?
A: inactive: -2.19%

Q: For `O=C(COC(=O)CNC(=O)c1ccc(Cl)cc1Cl)Nc1ccc(N2CCOCC2)cc1`, which Potency is on record?
A: inconclusive: 18.4 µM [rising, single point]

Q: Which “activity change, negative = cytotoxicity” value does the source give for `CC(CCc1ccccc1)NC(=O)c1ccc(NC(=O)c2ccccc2)cc1` (stereo unspecified) here?
A: inactive: -17.6%

Q: Which Potency does the source give for `CCN(CC)C(=O)Oc1nnc(SC(C)C)n1-c1ccc(Cl)cc1` here?
A: inconclusive: 2.31 µM [cytotoxic, full curve, poor fit]

Q: Which Potency does the source give for `O=[N+]([O-])c1ccc(COP(=O)(O)OCc2ccc([N+](=O)[O-])cc2)cc1` here?
A: inconclusive: 29.1 µM [rising, single point]

Q: For `Cc1ccc(S(=O)(=O)c2c(O)cc(C)c(NS(=O)(=O)c3ccc(Br)cc3)c2C)cc1`, which Potency is on record?
A: inconclusive: 0.0116 µM [cytotoxic, full curve, poor fit]

Q: Which “activity change, negative = cytotoxicity” value does the source give for `COc1ccc(NC(=O)c2cc(-c3ccncc3)nc3ccc(Br)cc23)cc1OC` here?
A: inactive: -13.7%

Q: With `Cn1c2ccccc2c(=O)c2ccc(-c3ccc4c(c3)OCO4)cc21` as the molecule, how does the Potency read?
A: inconclusive: 29.1 µM [cytotoxic, single point]

Q: Which Potency does the source give for `CCOc1ccc(-c2c(C(=O)N/N=C/c3ccsc3)nnn2-c2nonc2N)cc1` here?
A: inconclusive: 29.1 µM [rising, single point]

Q: For `COc1ccc(C2Nc3ccccc3C(=O)N2Cc2ccco2)cc1COc1ccc(F)cc1` (stereo unspecified), which Potency is on record?
A: inconclusive: 10.3 µM [cytotoxic, partial curve]

Q: For `CN1c2ccccc2C2(C)CCCC3=Cc4cc([N+](=O)[O-])cc([N+](=O)[O-])c4OC312` (stereo unspecified), which Potency is on record?
A: inconclusive: 10.3 µM [cytotoxic, partial curve, poor fit]

Q: With `Cc1cc(N2CCN(C)CC2)nc2ccc(NC(=S)NCc3cccs3)cc12` as the molecule, how does the “activity change, negative = cytotoxicity” value read?
A: inactive: -10.1%

Q: Which Potency does the source give for `O=C(c1ccc2c(c1)N(Cc1ccccc1)C(=O)c1ccccc1S2)N1CCCC1` here?
A: active: 2.31 µM

Q: With `COc1ccc(N2C(=O)CC(Sc3nc(C)c4c(n3)CCCC4)C2=O)cc1` (stereo unspecified) as the molecule, how does the Potency read?
A: inconclusive: 29.1 µM [cytotoxic, single point]

Q: For `CCC(C)Nc1nc(N)c([N+](=O)[O-])c(Nc2cc(OC)ccc2OC)n1` (stereo unspecified), which Potency is on record?
A: inconclusive: 5.8 µM [cytotoxic, partial curve, poor fit]

Q: With `CCOc1cc(NS(=O)(=O)CC)c(OCC)cc1NC(=O)c1ccco1` as the molecule, how does the Potency read?
A: inconclusive: 9.2 µM [cytotoxic, partial curve]

Q: For `O=C(Cc1cccs1)N[C@@H]1c2ccccc2CC[C@@H]1OCc1ccccc1`, which “activity change, negative = cytotoxicity” value is on record?
A: inactive: -7.29%

Q: With `CCOC(=O)Nc1cccc(OCC(=O)Nc2ccccc2OCC)c1` as the molecule, how does the Potency read?
A: active: 6.51 µM

Q: With `COc1cc(Nc2ccc(C)cc2)c([N+](=O)[O-])nc1[N+](=O)[O-]` as the molecule, how does the Potency read?
A: active: 5.8 µM

Q: Which Potency does the source give for `O=C(COc1ccc(F)cc1Br)Nc1ccccc1N1CCOCC1` here?
A: active: 8.2 µM

Q: With `CSc1cccc(NC(=O)c2cnn(-c3ccc(F)cc3)c2-n2cccc2)c1` as the molecule, how does the Potency read?
A: inconclusive: 14.6 µM [cytotoxic, partial curve]

Q: For `O=C(CSc1nc2c([nH]c3ccccc32)c(=O)n1-c1ccc(Cl)cc1)N1CCc2ccccc21`, which “activity change, negative = cytotoxicity” value is on record?
A: inactive: -5.64%
